These results are taken from publication PMC2982801.

Sequences of proteins named here, by UniProt entry; tags and fusion partners are left off.
UniProt Q924A0: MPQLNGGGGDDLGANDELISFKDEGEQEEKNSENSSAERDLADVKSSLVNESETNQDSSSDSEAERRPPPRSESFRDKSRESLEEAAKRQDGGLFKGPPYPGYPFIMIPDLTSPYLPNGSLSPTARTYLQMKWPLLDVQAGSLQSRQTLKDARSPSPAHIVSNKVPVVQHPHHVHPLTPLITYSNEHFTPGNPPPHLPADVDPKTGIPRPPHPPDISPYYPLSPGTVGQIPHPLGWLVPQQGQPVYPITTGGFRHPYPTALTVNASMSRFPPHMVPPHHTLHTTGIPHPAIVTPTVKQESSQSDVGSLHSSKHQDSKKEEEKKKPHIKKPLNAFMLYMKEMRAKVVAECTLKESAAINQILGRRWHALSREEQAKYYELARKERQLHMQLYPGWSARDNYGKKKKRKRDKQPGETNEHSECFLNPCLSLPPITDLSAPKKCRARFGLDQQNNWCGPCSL
UniProt Q6XZL8: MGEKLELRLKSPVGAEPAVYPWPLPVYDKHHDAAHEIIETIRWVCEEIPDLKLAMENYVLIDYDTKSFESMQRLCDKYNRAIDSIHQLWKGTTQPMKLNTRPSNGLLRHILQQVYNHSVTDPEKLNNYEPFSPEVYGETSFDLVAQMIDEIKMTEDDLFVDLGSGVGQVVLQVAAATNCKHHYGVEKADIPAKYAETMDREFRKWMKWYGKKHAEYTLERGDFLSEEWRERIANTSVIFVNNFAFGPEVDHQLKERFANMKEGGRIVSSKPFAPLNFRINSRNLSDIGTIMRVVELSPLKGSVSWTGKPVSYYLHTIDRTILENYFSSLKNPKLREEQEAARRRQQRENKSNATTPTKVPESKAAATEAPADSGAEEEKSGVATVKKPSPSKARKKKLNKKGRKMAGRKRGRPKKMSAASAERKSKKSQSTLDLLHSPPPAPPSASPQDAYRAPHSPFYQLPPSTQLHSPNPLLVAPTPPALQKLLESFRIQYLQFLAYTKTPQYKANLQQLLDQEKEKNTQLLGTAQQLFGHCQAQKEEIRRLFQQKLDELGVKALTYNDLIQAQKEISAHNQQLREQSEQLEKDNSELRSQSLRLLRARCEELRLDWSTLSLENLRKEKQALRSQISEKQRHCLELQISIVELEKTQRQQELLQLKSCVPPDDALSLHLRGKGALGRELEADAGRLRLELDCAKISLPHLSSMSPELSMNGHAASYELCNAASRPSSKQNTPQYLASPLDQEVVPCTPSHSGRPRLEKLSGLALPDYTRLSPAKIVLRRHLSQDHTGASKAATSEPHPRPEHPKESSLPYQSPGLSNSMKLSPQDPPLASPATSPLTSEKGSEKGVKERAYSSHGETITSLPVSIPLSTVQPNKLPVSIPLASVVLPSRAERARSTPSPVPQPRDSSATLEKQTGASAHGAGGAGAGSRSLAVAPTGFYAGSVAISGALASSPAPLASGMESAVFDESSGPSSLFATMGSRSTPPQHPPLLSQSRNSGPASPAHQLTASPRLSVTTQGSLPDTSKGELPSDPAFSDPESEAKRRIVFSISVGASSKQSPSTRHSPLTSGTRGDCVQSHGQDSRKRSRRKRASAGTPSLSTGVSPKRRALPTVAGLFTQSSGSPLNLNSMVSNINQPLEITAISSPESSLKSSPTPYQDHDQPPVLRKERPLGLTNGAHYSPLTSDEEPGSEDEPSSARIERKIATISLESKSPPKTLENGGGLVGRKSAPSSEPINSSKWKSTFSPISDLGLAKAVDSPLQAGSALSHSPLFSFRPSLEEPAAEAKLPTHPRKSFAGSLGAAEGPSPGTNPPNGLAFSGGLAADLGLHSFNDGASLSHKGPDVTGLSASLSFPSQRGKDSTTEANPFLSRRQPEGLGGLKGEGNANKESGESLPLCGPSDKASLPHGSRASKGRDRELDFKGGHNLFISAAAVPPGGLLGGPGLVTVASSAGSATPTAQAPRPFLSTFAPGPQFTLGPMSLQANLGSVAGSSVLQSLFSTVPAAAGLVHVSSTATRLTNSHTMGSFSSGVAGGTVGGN

Like-named read-outs stand apart in the source and are kept apart here. These are yes or no findings as the source states them, for the method shown. Binding seen in cells or lysates may run through a third protein. A yes stands for co-enrichment or nearness to the bait. Other partners may have been found.

The target of experiment [1] is Tcf4 (mouse (endogenous in small intestinal crypts)) (UniProt Q924A0). The experiment is described as follows: affinity purification with mass spectrometry; endogenous Tcf4 immunopurified from purified mouse small intestinal crypt fractions, isotype-matched IgGs as control; SDS-PAGE, Coomassie staining, in-gel trypsin digestion, nanoLC-MS/MS.
The target is the same in experiment [2]. Described as above. The source holds these as a separate data set.

On to “Dot1l (from UniProt Q6XZL8 1-1540) (enzyme)”, for which, in experiment [1], the binding result is “binds”.

B1: Mllt10/Af10 (protein, UniProt O54826 1-1068)
chain: MVSSDRPVSLEDEVSHSMKEMIGGCCVCSDERGWAENPLVYCDGHGCSVAVHQACYGIVQVPTGPWFCRKCESQERAARVRCELCPHKDGALKRTDNGGWAHVVCALYIPEVQFANVSTMEPIVLQSVPHDRYNKTCYICDEQGRESKAATGACMTCNKHGCRQAFHVTCAQFAGLLCEEEGNGADNVQYCGYCKYHFSKLKKSKRGSNRSYEQSLSDSSSHSQDKHHEKEKKKYKEKDKHKQKHKKQPEPSPALVPSLTVTTEKTYTSTSNNSISGSLKRLEDTAARFTNANFQEVSAHTSSGKDVSEARGSEGKGKKSSAHSSGQRGRKPGAGRNPGTAVSASSPFPQGSFSGTPGSVKSSSGSSVQSPQDFLSFTDSDLRSDSYTHTQQPSSTKDVHKGESGSQEAAVNSFSSLVGHPVTSTVISQPKSFDNSPGELGSSSLPTAGYKRAQTSGIEEEAVKEKKRKGNKQSKHGPGRPKGNKNQENVSHLSVSSASPTSSVASAAGSVTSSSLQKSPTLLRNGSLQSLSVGSSPVGSEISMQYRHDGACPTTTFSELLNAIHNGIYNSNDVAVSFPNVVSGSGSSTPVSSSHIPQQSSGHLQQVGALSPSAASSVTPAAATTQANTVSGSSLSQAPAHMYGSRLNQNPSMAVLIAQSESSQTDQDLGDNARSLGGRGSSPRGSLSPRSPVSNLQLRYDQPSNSSLETVPPVAASIEQLLERQWSEGQQFLLEQGTPGDILGMLKSLHQLQVENRRLEEQIKNLTAKKERLQLLNAQLSVPFPAITTNPSPSHQMHTYTAQTAPPPDSLNSSKSPHIGNSFLPDNSLPVLNQDLTSSGQSTSSSSALSTPPPAGQSPAQQSSGVSGVQQVNGVTVGALASGMQTVTSTIPAVSAVGGIIGALPGNQLAINGIVGALNGVIQTPVTISQNPAPLTHTSVPPNAAHPMPAAALTNSASGLGLLSDQQRQMFIQQQQFQQLLNSQQLTPEQHQAFLYQLMQQQHHPPELQQLQLPGPTQIPINNLLAGAQAPPLHTATTNPFLTIHGDSTSQKVTRLSDKTGPVAQEKS
As to B1, the binding entry in experiment [2] is reported as “binds”.
